Results deposited as PubChem BioAssay AID1224830 (NIAID, 2016)
The deposit covers about 18,000 reagents; below is a part drawn at random. About 2,900 of them (16%) count as active. 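Calls are made per well; low scores hint the gene aids the LPS response, high scores that it dampens it.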 A number with no mark means an inactive call. Repeated entries: four replicate wells of each siRNA pool.

- Aim: 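Genes whose knock-down alters the TNF-alpha reporter response to LPS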 (primary screen)
- System: human THP-1 monocytic leukaemia cells, TNF dual-luciferase reporter clone, PMA-differentiated to macrophage-like cells
- Reagent: siRNA pool against human genes, 50 nM
- Timing: LPS for 4 h, given about 3 days after siRNA transfection
- Challenge: bacterial LPS (TLR4 ligand), 10 ng/ml
- Read-out: 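Ratio of firefly to renilla light, scaled to the plate median and expressed as a robust z-score per replicate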
- Scale: TNF reporter robust z-score: higher = stronger TNF reporter response to LPS
- Rule for the call: 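a well is active when its z-score exceeds 2.8 or falls below -1.5; control wells carry no call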

PAX3: TNF reporter robust z-score = 0.42
PAX3: TNF reporter robust z-score = 2.63
PAX3: TNF reporter robust z-score = -0.06
PAX3: TNF reporter robust z-score = 2.09
CTF1: TNF reporter robust z-score = 0.94
CTF1: TNF reporter robust z-score = 0.39
CTF1: TNF reporter robust z-score = -0.18
CTF1: TNF reporter robust z-score = -0.47
FAHD1: TNF reporter robust z-score = -1.19
FAHD1: TNF reporter robust z-score = 1.14
FAHD1: TNF reporter robust z-score = -0.26
FAHD1: TNF reporter robust z-score = 3.04 (active)
GPR149: TNF reporter robust z-score = 1.99
GPR149: TNF reporter robust z-score = -0.46
GPR149: TNF reporter robust z-score = -0.59
GPR149: TNF reporter robust z-score = 0.1

Reformatted: results already given
GPR149
- TNF reporter robust z-score: -0.46

GPR149
- TNF reporter robust z-score: -0.59

GPR149
- TNF reporter robust z-score: 0.1

The results go on:
AGRN: TNF reporter robust z-score = -1.33
AGRN: TNF reporter robust z-score = -1.29
AGRN: TNF reporter robust z-score = -0.9
CIB2: TNF reporter robust z-score = -0.1
CIB2: TNF reporter robust z-score = -0.54
CIB2: TNF reporter robust z-score = -0.24
CIB2: TNF reporter robust z-score = 0.09
BAGE3: TNF reporter robust z-score = -1.2
BAGE3: TNF reporter robust z-score = -0.09
BAGE3: TNF reporter robust z-score = -1.06
BAGE3: TNF reporter robust z-score = -0.71
TXNDC5: TNF reporter robust z-score = 2.77
TXNDC5: TNF reporter robust z-score = 3.04 (active)
TXNDC5: TNF reporter robust z-score = 3.13 (active)
TXNDC5: TNF reporter robust z-score = 1.41
DCBLD2: TNF reporter robust z-score = -1.16
DCBLD2: TNF reporter robust z-score = -0.63
DCBLD2: TNF reporter robust z-score = -1.01
